Assay results taken from PubChem BioAssay AID1347076 (National Center for Advancing Translational Sciences (NCATS), 2019).
Out of some 400,000 compounds screened, about 13,000 (3.2%) were called active. This list was built around the results that the source calls inconclusive (neither active nor inactive); the mix of calls is not that of the screen. The call rests on the fitted dose curve; in most records, active means well fitted cell-killing curve with a large enough effect; inconclusive means small, poorly fitted or top-dose-only effect, or effect the other way; inactive means flat fitted curve, though single readings scatter. Where the call is inconclusive, the potency comes from a doubtful curve fit.

Assay: qHTS assay for MDR1-selective chemotherapeutics: Primary screen using the drug-selected MDR subline cells KB-V1; further: nearly all actives have a fitted effect of over 60% in size
Settings: KB-V1 MDR cells viability, CellTiter-Glo, 72 h; series mostly up to 46.1 µM
Outline: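 Cells of the MDR subline KB-V1 are plated, dosed with compound at multiple concentrations, and incubated 72 h at 37 degrees C; CellTiter-Glo is then added and luminescence read after 10 min.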
Potency means the concentration at half of the fitted maximal effect.

Compound	Potency
CC(OC(=O)CNC(=O)c1ccc(Br)cc1)C(=O)NC1CCCCC1C (stereo unspecified)	inconclusive: 6.51 µM [rising, partial curve]
COc1cccc(CN(Cc2ccco2)C(c2ccc(F)cc2)c2nnnn2C(C)(C)C)c1 (stereo unspecified)	inconclusive: 18.4 µM [cytotoxic, single point]
COc1ccc(OCc2nn3c(Cn4cnc5ccccc54)nnc3s2)cc1	inconclusive: 25.9 µM [cytotoxic, partial curve, poor fit]
COc1ccc2cc([C@H](C)C(=O)N(C)Cc3ccccc3N3CCCC3)ccc2c1	inconclusive: 11.6 µM [cytotoxic, partial curve, poor fit]
COC(=O)c1ccc(Nc2ncnc3c2cnn3-c2cccc(C)c2)cc1	inconclusive: 3.66 µM [rising, partial curve]
O=C(CCS(=O)(=O)c1ccccc1)Nc1ccc(N2CCN(Cc3ccccc3)CC2)cc1	inconclusive: 20.6 µM [cytotoxic, partial curve, poor fit]
O=[N+]([O-])c1ccc(Cn2cc(-c3cccc(C(F)(F)F)c3)nn2)cc1	inconclusive: 16.4 µM [cytotoxic, single point]
CC(C)CN(CC(C)C)c1nnc(NC(=O)Nc2cccc(C(F)(F)F)c2)s1	inconclusive: 20.6 µM [cytotoxic, partial curve]
CC(=O)NCCCc1ccc(C(=O)COC(=O)CNC(=O)c2ccc3ccccc3c2)cc1	inconclusive: 29.1 µM [rising, partial curve, poor fit]
CCC(=O)Nc1nc2ccc3sc(C)nc3c2s1	inconclusive: 29.1 µM [cytotoxic, single point]
CCN(CC(=O)Nc1ccc(NC(C)=O)cc1)C(=O)c1cc(CN2C(=O)c3ccccc3C2=O)ccc1OC	inconclusive: 23.1 µM [rising, single point]
CCn1c(=O)c2cc(C(=O)NCCc3ccc(OC)c(OC)c3)sc2c2ccccc21	inconclusive: 9.2 µM [cytotoxic, partial curve, poor fit]
Cc1ccc2nc(Cl)c3cc(C(=O)N4CCCC(C)C4)sc3c2c1 (stereo unspecified)	inactive
CC(=C\c1ccco1)/C=C(\C#N)C(=O)NCCc1c[nH]c2ccccc12	active: 23.1 µM
CC(C)(C)c1ccc(NC(=O)C2=CC=CN3CCS(=O)(=O)N=C23)cc1	inconclusive: 11.6 µM [rising, partial curve, poor fit]
Cc1cc(/C=C2\SC(=Nc3ccccc3)NC2=O)c(C)n1-c1ccc(S(N)(=O)=O)cc1	inconclusive: 32.6 µM [cytotoxic, single point]
O=C(NC(Cc1ccccc1)C(=O)Oc1ccc2c(C(F)(F)F)cc(=O)oc2c1)OCc1ccccc1 (stereo unspecified)	inconclusive: 29.1 µM [cytotoxic, single point]
CN1CCN(CCCCOc2cccc3ccccc23)CC1	inactive
COc1ccc(OC2C(=O)N(CCc3ccc(OC)c(OC)c3)C2c2ccc3c(c2)OCO3)cc1 (stereo unspecified)	inconclusive: 13 µM [cytotoxic, partial curve, poor fit]
CC(C)(C)OC(=O)N1CCC(c2c(C(=O)NCC3CCN(C4CCCC4)C3)cnn2-c2ccc(F)cc2)CC1 (stereo unspecified)	inconclusive: 20.6 µM [rising, single point]
CS(=O)(=O)N1CCC(Oc2ccccc2C(=O)NC(C2CC2)C2CC2)CC1	inconclusive: 8.2 µM [cytotoxic, partial curve]
COCCN(C)Cc1cn(-c2ccc(F)cc2F)nc1-c1ccccc1C	inconclusive: 9.2 µM [cytotoxic, partial curve]

Two entries drawn at random from those above:
Compound	Potency
O=[N+]([O-])c1ccc(Cn2cc(-c3cccc(C(F)(F)F)c3)nn2)cc1	inconclusive: 16.4 µM [cytotoxic, single point]
COC(=O)c1ccc(Nc2ncnc3c2cnn3-c2cccc(C)c2)cc1	inconclusive: 3.66 µM [rising, partial curve]

Later entries.

Compound	Potency
Cn1c(=O)cc(OCC(=O)N2CCCc3ccccc32)c2ccccc21	active: 14.6 µM
CN(C)c1ccc(/C=N/NC(=O)c2ccccc2)cc1	inconclusive: 29.1 µM [cytotoxic, single point]
CCCN(CC)c1ncnc2[nH]ncc12	inconclusive: 18.4 µM [cytotoxic, single point]
Nc1nc(Nc2cccc(F)c2)nc(NCc2ccco2)c1[N+](=O)[O-]	inconclusive: 29.1 µM [cytotoxic, single point]
Cc1ccc(NC(=O)COC(=O)CN2C(=O)C3CCCCC3C2=O)cc1S(=O)(=O)N1CCOCC1 (stereo unspecified)	inconclusive: 29.1 µM [rising, single point]
CC1(C)Cc2c(C#N)c(N3CCN(C(=O)c4ccco4)CC3)nc(Cc3ccccc3)c2CO1	inconclusive: 29.1 µM [cytotoxic, single point]
CCOC(=O)C(C(C)=O)c1nc(C)nc2c1nnn2Cc1ccccc1Cl (stereo unspecified)	inconclusive: 20.6 µM [cytotoxic, partial curve]
CCc1ccccc1NC(=O)c1cc(S(=O)(=O)N2CCC(C)CC2)cn1C	inconclusive: 0.411 µM [cytotoxic, full curve, poor fit]
COc1ccc(-c2cc(C(F)(F)F)n3nc(C(=O)Nc4cccc(Cl)c4Cl)cc3n2)cc1OC	inactive
CC1CCCN(C(=O)Cc2cn(Cc3cccc(Cl)c3)c3ccccc23)C1 (stereo unspecified)	inconclusive: 13 µM [cytotoxic, partial curve, poor fit]
COc1ccc(C(=O)NCc2nnc(SC)n2Cc2ccccc2)cc1	inconclusive: 29.1 µM [cytotoxic, single point]
Cn1c(=O)c2c(-c3ccccc3)n3c(c2n(C)c1=O)C(c1cccc([N+](=O)[O-])c1)Nc1ccccc1-3 (stereo unspecified)	inconclusive: 29.1 µM [cytotoxic, single point]
Cn1c(=O)n(Cc2ccccc2)c(=O)c2c1nc1n2CCS1	inconclusive: 14.6 µM [cytotoxic, partial curve]
CC1CCN(CCCNC(=O)c2n[nH]c(=O)c3ccccc23)CC1	inactive
CCCn1c(CNc2ccccc2O)nc2ccccc21	inconclusive: 20.6 µM [cytotoxic, single point]
Cc1ccc(NC(=O)C2CCCN(c3nc4ccccc4s3)C2)c(C)c1 (stereo unspecified)	inactive
C=CCn1c(-c2ccc(OC)cc2)csc1=Nc1c(C)n(C)n(-c2ccccc2)c1=O	active: 8.2 µM
COC(=O)c1ccc(C(=O)OC)c(NC(=O)CN2CCC(C)CC2)c1	inconclusive: 11.6 µM [cytotoxic, partial curve]
Nc1cccc(-c2cncc(N3CCN(Cc4ccccn4)CC3)n2)c1	inactive
COc1ccc(-c2cc(C(F)(F)F)n3nc(C(=O)Nc4ccc(Cl)cc4C(F)(F)F)cc3n2)cc1OC	inactive
COc1ccc(S(=O)(=O)N2CCC[C@H]2C(=O)NCc2ccc(Cl)cc2)cc1	inconclusive: 6.51 µM [cytotoxic, partial curve]
Cc1ccc(NC(=O)c2ccc3c(c2)[nH]c(=O)n3C(C)C)cc1	inconclusive: 18.4 µM [cytotoxic, single point]

Compound	Potency
CCCCCCn1cc(C(=O)O)c(=O)c2cc(F)c(N3CCN(C(=O)OCC)CC3)cc21	active: 2.06 µM
COc1ccc(S(=O)(=O)N2CCN(CC(O)COc3ccc(CC#N)cc3)CC2)cc1OC (stereo unspecified)	inconclusive: 29.1 µM [cytotoxic, single point]
CCOC(=O)C1CCN(C(=O)c2ccc(Cl)c(Cl)c2)CC1	inconclusive: 23.1 µM [cytotoxic, single point]
O=C(CC1C(=O)N(Cc2ccccc2)C(=S)N1CCN1CCOCC1)Nc1ccc(F)cc1 (stereo unspecified)	inconclusive: 7.31 µM [cytotoxic, partial curve]
CCCCc1c(-c2ccccc2OC)ncn1CCc1ccc(OC)cc1	active: 9.2 µM
COCCNc1nc(-c2ccc(OC)cc2C)c2sc(-c3ccccc3)cc2n1	inconclusive: 29.1 µM [cytotoxic, single point]
Cc1ccc(C(C#N)c2ccc3c(C(F)(F)F)cc(C(F)(F)F)nc3n2)cc1 (stereo unspecified)	inconclusive: 29.1 µM [cytotoxic, single point]
CS(=O)(=O)c1ccccc1-c1nnc(NC(=O)c2ccc(S(=O)(=O)N3CCCC3)cc2)o1	inactive
CCN(C(=O)Cn1cnc2c1c(=O)n(C)c(=O)n2C)c1ccccc1C	inconclusive: 20.6 µM [rising, single point]
Cc1ccc(Cl)c(OC(=O)c2ccc(N3CCOCC3)c([N+](=O)[O-])c2)c1	inconclusive: 14.6 µM [rising, partial curve]
COc1cccc(OC)c1C(=O)N1CCN(Cc2ccccc2F)CC1	inactive
COC(=O)C1=C(C)NC(=O)CC1c1ccccc1F (stereo unspecified)	inactive
O=C(NC(=Nc1nc2ccccc2o1)NC(=O)c1ccccc1)c1ccccc1	inactive
Cc1ccc(-c2nn3c(C)nnc3c3ccccc23)cc1S(=O)(=O)NC(C)(C)CO	inactive
Cc1c(C(=O)Nc2ccc(C(=O)Nc3ccccc3)cc2)cccc1[N+](=O)[O-]	inconclusive: 8.2 µM [rising, partial curve]
Cc1cccc(C)c1NC(=O)CN(C)C(=O)CC1Sc2ccccc2NC1=O (stereo unspecified)	inconclusive: 29.1 µM [rising, single point]
COc1cccc(CNC(=O)Nc2ccc3c(c2)N(C)C(=O)c2ccccc2S3)c1	inactive
CC(OC(=O)c1ccc(Cl)nc1)C(=O)N1CCc2ccccc21 (stereo unspecified)	inconclusive: 29.1 µM [cytotoxic, partial curve, poor fit]
O=C(Nc1nc(-c2ccco2)c(-c2ccco2)s1)c1cnccn1	active: 2.06 µM
CCCCn1c(C(C)NC(=O)CC)nc2ccccc21 (stereo unspecified)	inactive
Cc1ccc(C(=O)c2cc([N+](=O)[O-])ccc2N2CCOCC2)c(C)c1	active: 0.58 µM
COc1cc(/C=N/O)c(Br)cc1OCC(=O)Nc1ccccc1C	active: 8.2 µM

Rewritten as a markdown table: entries from further up.

| Compound | Potency |
| --- | --- |
| CCCCn1c(C(C)NC(=O)CC)nc2ccccc21 (stereo unspecified) | inactive |
| Cc1ccc(C(=O)c2cc([N+](=O)[O-])ccc2N2CCOCC2)c(C)c1 | active: 0.58 µM |
| COc1cc(/C=N/O)c(Br)cc1OCC(=O)Nc1ccccc1C | active: 8.2 µM |
